Results reported in PubChem BioAssay AID2685 (National Center for Advancing Translational Sciences (NCATS), 2010).
Some of the results follow. These are further read-outs of the screen, such as a control signal, another cell line or another target. No call is given for them. Compounds called inactive in the main read-out are mostly missing here. The note in brackets gives the kind of curve behind each potency; many fits are weak.

Assay: qHTS Assay for Lipid Storage Modulators in Drosophila S3 Cells;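 for cell number change: cells counted by Cell Tracker Red CMTPX staining in the red channel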
Conditions: BODIPY lipid droplet fluorescence, 18-24 h; for cell number change: measured here: cell count max response, cells fed with added oleic acid
Method in brief: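 Drosophila S3 cells got compounds at several concentrations plus oleic acid (400 uM solution). Laser-scanning cytometry with 488 nm excitation read lipid droplets at 500-530 nm and cells at 575-640 nm. Percent activity was relative to 20 uM Triacsin C.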

[1] = measured here: lipid fluorescence (Fed channel) AC50, cells fed with added oleic acid
[2] = measured here: cell number channel AC50, cells fed with added oleic acid

O=C(NCCN1CCOCC1)c1cc(-c2ccccc2Cl)on1
cell number change: 16.7%

CCC1CCCCN1S(=O)(=O)c1ccccc1 (configuration not stated)
cell number change: -0.275% | AC50 [1]: 29.1 µM [rising, single point]

COC(=O)c1ccc(C(=O)OC)c(NC2=NS(=O)(=O)c3ccccc32)c1
cell number change: 194% | AC50 [2]: 14.6 µM [rising, partial curve] | AC50 [1]: 11.6 µM [rising, partial curve]

CC(C)n1ncc2c(C(=O)Nc3ccc(CC#N)cc3)cc(C3CC3)nc21
cell number change: 7.76% | AC50 [1]: 2.59 µM [rising, single point]

CC(=O)c1cc(NC(=O)c2ccccc2)c(=O)oc1/C=C/N(C)C
cell number change: 125% | AC50 [2]: 29.1 µM [rising, single point] | AC50 [1]: 29.1 µM [rising, single point]

COc1ccc(CC(=O)Nc2ccc(/C(C)=N/NC(=O)c3cccc([N+](=O)[O-])c3)cc2)cc1
cell number change: -48.3% | AC50 [2]: 29.1 µM [falling, single point]

COc1ccc(NC(=O)CCCNC(=O)Cn2cnc3sc4c(c3c2=O)CCCC4)cc1OC
cell number change: 18.5% | AC50 [1]: 29.1 µM [rising, single point]

COc1ccccc1N1CCN(C/C(C)=C/c2ccccc2)CC1
cell number change: -37.9% | AC50 [2]: 0.0291 µM [falling, full curve, poor fit]

COc1ccccc1C(=O)NNC(=O)C1CCCO1 (configuration not stated)
cell number change: 18.3% | AC50 [1]: 6.51 µM [falling, single point]

N/C(=N\OC(=O)C(c1ccccc1)c1ccccc1)c1ccncc1
cell number change: -0.617% | AC50 [1]: 4.11 µM [rising, single point]

CCOC(=O)C1CCN(Cc2cc(C(C)(C)C)c(O)c(C(C)(C)C)c2)CC1
cell number change: 47.4% | AC50 [2]: 18.4 µM [rising, single point]

COc1ccc(S(=O)(=O)Nc2ccc(-c3ccc4nnc(C)n4n3)cc2)c(OC)c1
cell number change: -22.7% | AC50 [1]: 29.1 µM [falling, single point]

O=C(Nc1ccc(-c2noc(-c3cccs3)n2)cc1)c1cccnc1
cell number change: -45.1% | AC50 [2]: 29.1 µM [falling, single point] | AC50 [1]: 25.9 µM [falling, single point]

Cc1cc2ncn(CS(C)(=O)=O)c2cc1C
cell number change: -17.2% | AC50 [1]: 4.11 µM [falling, full curve]

COc1ccc(OC)c(CNc2ccc(F)c(Cl)c2)c1
cell number change: 5.95% | AC50 [2]: 2.06 µM [rising, single point]

COc1ccccc1CC1(C)NC(=O)N(CC(=O)N2CC(C)OC(C)C2)C1=O (configuration not stated)
cell number change: -33.7% | AC50 [2]: 32.6 µM [falling, single point] | AC50 [1]: 0.116 µM [falling, single point]

COc1ccc(C(=O)N2c3ccccc3CC2C)cc1OC (configuration not stated)
cell number change: -10.8%

CCOC(=O)c1sc(NC(=O)c2c(C)nn(Cc3ccccc3)c2C)cc1C
cell number change: -126% | AC50 [2]: 29.1 µM [falling, single point] | AC50 [1]: 29.1 µM [falling, single point]

O=C(N1CCN(c2ccccc2)CC1)C(F)(F)C(F)F
cell number change: 3.64% | AC50 [1]: 0.103 µM [rising, full curve, poor fit]

NC(=O)CSc1nnc2n(-c3ccccc3)c(=O)c3c4c(sc3n12)CCCCC4
cell number change: -6.93%

O=C(Cn1ccc2ccccc2c1=O)NCCC(=O)Nc1cccc(Cl)c1
cell number change: -5.56% | AC50 [1]: 29.1 µM [falling, single point]

CN1CCN(c2ccc(NC(=O)c3ccc(-c4ccc(Cl)cc4)o3)cc2)CC1
cell number change: -17.2%

O=C(Nc1nonc1-c1ccc(F)cc1)c1ccco1
cell number change: 12.5% | AC50 [1]: 0.092 µM [falling, full curve, poor fit]

CCc1c(C)c(C#N)c2nc3ccccc3n2c1N(C)C
cell number change: 5.74% | AC50 [1]: 6.51 µM [rising, single point]

COc1ccc(NC(=O)c2cc(-c3cc(OC)c(OC)c(OC)c3)nc3ccccc23)cc1OC
cell number change: 2.42%

CC(C)(C)c1ccc(C(=O)NNC(=O)c2cccc(-n3cnnn3)c2)cc1
cell number change: -23% | AC50 [1]: 0.259 µM [falling, full curve, poor fit]

Cc1cc(S(=O)(=O)NCc2ccncc2)c(C)cc1Br
cell number change: -37.8% | AC50 [2]: 14.6 µM [falling, single point] | AC50 [1]: 20.6 µM [falling, partial curve]

CCN1CCN(CC(O)COC(c2ccccc2)c2ccccc2)CC1 (configuration not stated)
cell number change: -10.1% | AC50 [2]: 0.164 µM [rising, full curve, poor fit]

Cc1onc(-c2ccccc2)c1C(=O)NC(=S)NNC(=O)c1ccc(O)cc1O
cell number change: -21.6% | AC50 [1]: 2.59 µM [rising, single point]

CCCCc1ccc(NC(=O)CN2C(=O)NC(Cc3ccccc3)C2=O)cc1 (configuration not stated)
cell number change: 0.402%

CC1CN(Cc2ccccc2)c2ccccc2NC1=S (configuration not stated)
cell number change: 20.5% | AC50 [1]: 29.1 µM [falling, single point]

CC1(C)CC(=O)C2=C(C1)OC(N)=C(C#N)C2c1ccccc1 (configuration not stated)
cell number change: -1.82%

O=C(Cn1c(=O)n(Cc2ccco2)c(=O)c2c3c(sc21)CCCCC3)Nc1ccccc1
cell number change: -11.2% | AC50 [1]: 29.1 µM [falling, partial curve, poor fit]

Cc1ccc2oc(=O)c(/C=C(\O)c3sc(C)nc3C)nc2c1
cell number change: -15.6% | AC50 [1]: 16.4 µM [falling, single point]

NC(=O)C1(N2CCCCC2)CCN(C(=O)CCCn2c(=O)[nH]c3ccsc3c2=O)CC1
cell number change: 33.2% | AC50 [2]: 0.00461 µM [rising, full curve, poor fit] | AC50 [1]: 0.0231 µM [rising, full curve, poor fit]

CCC(=O)N1CCc2cc(S(=O)(=O)NC(C(=O)N3CCN(c4ccc(F)cc4)CC3)C(C)C)ccc21 (configuration not stated)
cell number change: 14.1%

Cc1ccc(CN2CCc3[nH]c(=S)[nH]c(=O)c3C2)cc1
cell number change: -8.02% | AC50 [1]: 0.411 µM [falling, single point]

Brc1ccc(CSc2ncn[nH]2)cc1
cell number change: 12.6% | AC50 [1]: 11.6 µM [falling, partial curve]

CCOC(=O)N1CCC(NC(=O)c2cc(C(=O)Nc3ccc(S(=O)(=O)N4CCOCC4)cc3)ccc2CO)CC1
cell number change: -15.8% | AC50 [1]: 0.13 µM [falling, full curve, poor fit]

COc1cccc(OC)c1-c1nn2c(-c3cc(-c4ccccc4)n[nH]3)nnc2s1
cell number change: -41.1% | AC50 [2]: 23.1 µM [falling, single point] | AC50 [1]: 29.1 µM [falling, single point]

Cc1oc2cc3oc(=O)c(CCC(=O)NCCN4CCOCC4)c(C)c3cc2c1C
cell number change: 12.6% | AC50 [1]: 29.1 µM [falling, single point]

Cc1ccc(N/C=C/C(=O)c2ccccc2)cc1Br
cell number change: 14.6% | AC50 [2]: 5.17 µM [rising, partial curve]

CC(C)(C)OC(=O)NCc1ccc(CNC(=O)c2nc[nH]c2C(=O)N2CCc3ccccc3C2)cc1
cell number change: -10.8% | AC50 [1]: 0.00461 µM [rising, full curve, poor fit]

COc1ccc(NC(=O)C(CC(C)C)NC(=O)C2CCC(C)CC2)cc1 (configuration not stated)
cell number change: 10.8% | AC50 [1]: 0.58 µM [rising, single point]

O=C(COC(=O)Cc1cccc(C(F)(F)F)c1)NCC1CCCO1 (configuration not stated)
cell number change: 15.6% | AC50 [2]: 1.16 µM [falling, partial curve]

O=C(CCn1ccc2cc(S(=O)(=O)N3CCCC3)ccc21)NCCc1ccccc1
cell number change: -12.5% | AC50 [1]: 0.058 µM [falling, full curve, poor fit]

COc1ccc(OC)c(NC(=O)CCN2CCN(c3ccccc3OC)CC2)c1
cell number change: 3.04% | AC50 [1]: 16.4 µM [falling, single point]

O=C1CC(Cc2ccc(Br)cc2)C(=O)N1c1ccccc1 (configuration not stated)
cell number change: -11.5% | AC50 [1]: 5.17 µM [falling, full curve]

CC(Oc1ccccc1)C(=O)N=C1SC2CS(=O)(=O)CC2N1Cc1ccc(F)cc1 (configuration not stated)
cell number change: -3.77% | AC50 [1]: 0.0259 µM [rising, full curve]

Cc1ccc(CNC(=O)CCCn2nc(C)n3ccnc3c2=O)cc1
cell number change: 3.2%

Cn1c(=S)[nH]c2c(c1=O)C(C)(C)Cc1ccccc1-2
cell number change: -7.95% | AC50 [2]: 0.13 µM [falling, full curve, poor fit]

Cc1cc(C)n(CC(=O)NC2CCCCC2C)c(=O)c1C#N (configuration not stated)
cell number change: -3.31%

COc1ccc(/C=N/NC(=O)c2ccoc2C)cc1COc1ccc(Cl)cc1
cell number change: -22.8% | AC50 [1]: 7.31 µM [rising, partial curve, poor fit]

Cn1c(=O)c2cc(S(=O)(=O)N3CCN(c4cccc(C(F)(F)F)c4)CC3)ccc2n(C)c1=O
cell number change: 12.3% | AC50 [1]: 3.66 µM [rising, single point]

CCCCN(CC)C(=O)c1ccc(Cl)c(Cl)c1
AC50 [1]: 0.58 µM [falling, single point]

Cc1oc(-c2ccccc2F)nc1CN1CCC(C(=O)NCCC2=CCCCC2)CC1
cell number change: -15.7% | AC50 [1]: 1.64 µM [falling, full curve, poor fit]

CN1C(=O)/C(=C/c2ccco2)SC1=Nc1ccc(N2CCOCC2)cc1
cell number change: -32.9% | AC50 [2]: 32.6 µM [falling, single point]

Cc1ccc(CC(=O)Nc2nc3c(s2)CCCC3)cc1
AC50 [1]: 5.17 µM [falling, partial curve]

CCOc1ncccc1C(=O)N1CCN(S(=O)(=O)c2ccc(Br)cc2Cl)CC1
cell number change: -10.8%

O=C(O)Cn1c(=O)c2c3c(sc2n(Cc2ccccc2)c1=O)CCCC3
cell number change: 12.8% | AC50 [1]: 13 µM [rising, partial curve, poor fit]

Cc1cc(C)n(-c2ccc(C(=O)Nc3cccc(S(=O)(=O)N4CCCC4)c3)cc2)n1
cell number change: -26.3% | AC50 [1]: 16.4 µM [falling, single point]
